Laboratory results taken from PubChem BioAssay AID540276 (National Center for Advancing Translational Sciences (NCATS), 2011).
In all, about 300,000 compounds went through this assay and about 5,400 (1.8%) were called active. Inconclusive results, whose numbers are uncertain, are shown with a selection of clear calls. Calls follow the shape of the full dose curve; tested in HEK293 cells. Potencies beside an inconclusive call are fits to weak or partial responses and may not hold up.

assay: qHTS for inhibitors of binding or entry into cells for Marburg Virus; conditions: Marburg virus pseudotyped entry inhibition, cell reporter; activity change, negative = inhibition: at 37.8 µM (top of the series) unless noted
% is scaled to controls: 0 for no effect and ±100 for the full control effect; potency is read from the fitted curve at half-maximal effect.

| Compound | activity change, negative = inhibition | Potency |
| --- | --- | --- |
| FC(F)(F)c1ccccc1NC(=S)NN=C1CCCCCC1 | inactive: -20.2% [at 46.1 µM] |  |
| COc1ccc(/C(N)=N/OC(=O)c2cccc([N+](=O)[O-])c2)cc1OC |  | inconclusive: 0.0891 µM [activator, full curve, poor fit] |
| O=C(Oc1cccc(C(=S)N2CCOCC2)c1)c1cccc(Cl)c1 | inactive: 5.5% |  |
| CC1=C(C(=O)Nc2ccccc2)C(c2cccc(O)c2)n2nc(-c3ccccc3Cl)nc2N1 (centres undefined) | inactive: -28.5% [at 46.1 µM] |  |
| Cc1nnc(SCc2c(Cl)cccc2[N+](=O)[O-])s1 |  | inconclusive: 0.631 µM [inhibitor, full curve, poor fit] |
| O=[N+]([O-])c1ccc(N=Nc2c(O)[nH]c3ccc(F)cc23)cc1 |  | inconclusive: 3.16 µM [activator, partial curve, poor fit] |
| CCn1c(CCC(=O)O)nc2cc(S(=O)(=O)N3CCOCC3)ccc21 | inactive: -24.7% |  |
| C[C@]12C=CC(=O)C=C1CC[C@@H]1[C@@H]2C(=O)C[C@@]2(C)[C@H]1CC[C@]2(O)C(=O)COC(=O)CCC(=O)O | inactive: -3.4% [at 46.1 µM] |  |
| Cc1ccccc1NC(=O)CCC(=O)N/N=C/c1cc([N+](=O)[O-])ccc1O |  | inconclusive: 6.31 µM [activator, single point] |
| COc1ccc(C(C)=O)cc1COC(=O)c1cccnc1Cl | inactive: 17.9% [at 46.1 µM] |  |
| Nc1c(NCCCN2CCOCC2)c2ccccc2oc1=O |  | inconclusive: 29.1 µM [activator, single point] |
| O=C(Nc1ccc(N2CCCC2)cc1)c1cc(Br)ccc1Cl |  | inconclusive: 11.2 µM [inhibitor, partial curve] |
| Cc1ccc(S(=O)(=O)N2CCC(C(=O)NNC(=O)c3ccccc3O)CC2)cc1C | inactive: 8.38% |  |
| Cc1ccc(C(=O)NCCCNC(=O)c2cccnc2)cc1 | inactive: -1.36% [at 46.1 µM] |  |
| CC(C)CN(C(=O)COC(=O)C12CC3CC(CC(C3)C1)C2)c1c(N)n(Cc2ccccc2)c(=O)[nH]c1=O | inactive: -1.3% [at 46.1 µM] |  |
| O=C1CCCCCN1Sc1ccccc1 | inactive: -12.6% |  |
| CC(C)NC1CCC(Nc2ccnc3cc(Cl)ccc23)CC1 (centres undefined) |  | active: 2.82 µM |
| Cc1c(Cl)cccc1NC(=O)Cn1nc(C(F)(F)F)c2c1CCC2 | inactive: -10.2% [at 46.1 µM] |  |
| CCOP(=O)(OCC)c1nc(-c2ccc(OC)cc2)oc1N1CCOCC1 | inactive: -5.19% [at 46.1 µM] |  |
| CCCC1(C(=O)OCC)NC(c2cc(OC)c(OC)c(OC)c2)C2C(=O)N(CC)C(=O)C21 (centres undefined) | inactive: 9.61% |  |
| O=C(/C=C/c1ccccc1)CCN1CCOCC1 |  | inconclusive: 14.1 µM [inhibitor, single point] |
| O=[N+]([O-])c1ccc(N/N=C\c2ccccc2OCc2ccccc2)cc1 |  | inconclusive: 35.5 µM [inhibitor, single point] |
| O=C(O)c1cccc2c1C(=O)c1ccccc1C2=O | inactive: 15.4% [at 46.1 µM] |  |
| Cc1cc(C)cc(N(CC(=O)NC2CCCC2)C(=O)CCC(=O)Nc2cc(C)ccn2)c1 | inactive: -1.19% [at 46.1 µM] |  |
| CN1CCN(CCCCC(=O)c2ccccc2)CC1 |  | inactive |

| Compound | activity change, negative = inhibition | Potency |
| --- | --- | --- |
| CCOc1ccc(-c2cc(C(=O)N/N=C/c3cccnc3)c3ccccc3n2)cc1 |  | inconclusive: 1.58 µM [inhibitor, full curve] |
| CCOc1ccccc1C(=O)N1CCN(CCc2ccccn2)CC1 | inactive: -9.67% [at 46.1 µM] |  |
| NCCc1nnc(SCC(=O)c2ccc(Cl)cc2)o1 |  | inconclusive: 1.12 µM [inhibitor, single point] |
| CC(C)(C)c1ccc(C(=O)NC(=S)Nc2sc3c(c2C#N)CCC3)cc1 |  | inconclusive: 6.31 µM [inhibitor, full curve, poor fit] |
| COc1cccc(C(=O)Nc2cccc(OCC(=O)O)c2)c1 | inactive: 11.8% |  |
| O=S1(=O)N=C(N2CCN(Cc3ccccc3)CC2)c2ccccc21 |  | inconclusive: 5.62 µM [activator, single point] |
| CCN(CC)S(=O)(=O)c1ccc(S(=O)(=O)N2CCCC(C(=O)NC3CC3)C2)cc1 (centres undefined) |  | inconclusive: 12.6 µM [inhibitor, partial curve, poor fit] |
| COc1ccc(NS(=O)(=O)c2cccc(C(=O)NNC(=O)c3cc(C)oc3C)c2)cc1 | inactive: -16.3% |  |
| COc1ccc(NS(=O)(=O)c2ccc(NC(=O)c3ccc(Br)cc3)cc2)nn1 |  | inconclusive: 16.4 µM [inhibitor, partial curve, poor fit] |
| CCc1ccc(NC(=O)C(=O)NCCN2CCN(Cc3ccc([N+](=O)[O-])cc3)CC2)cc1 |  | inconclusive: 3.98 µM [inhibitor, full curve] |
| Cn1ncc(C#N)c1NC(=O)c1nn2cccnc2c1Cl | inactive: 13.6% |  |
| CCN(CC)c1ccc(CN2CC=C(c3ccc(F)cc3)CC2)cc1 |  | inconclusive: 35.5 µM [inhibitor, single point] |
| C=CCn1c(O)c(N=NC(=S)Nc2ccccc2C)c2cc(S(=O)(=O)N3CCOCC3)ccc21 |  | inconclusive: 11.6 µM [inhibitor, single point] |
| O=C(Nc1ccccc1NC(=O)NC1CCCCC1)NC1CCCCC1 |  | active: 4.61 µM |
| COc1ccc(-c2cc(C(=O)Nc3ccccc3SC)no2)cc1 |  | inconclusive: 14.6 µM [activator, partial curve, poor fit] |
| CCOC(=O)Cc1csc(NC(=O)CSc2ncnc3c2cnn3-c2ccc(OC)cc2)n1 |  | inconclusive: 35.5 µM [inhibitor, single point] |
| Cc1cccc(-c2noc(CNC(=O)c3ccco3)n2)c1 |  | inconclusive: 10 µM [activator, partial curve, poor fit] |
| O=S(=O)(NCc1csc(-c2cccnc2)n1)c1ccc2c(c1)OCCO2 | inactive: 14.8% |  |
| O=C(Nc1ccc(Cl)c(Cl)c1)Oc1ccc(NC(=O)c2ccco2)cc1 | inactive: 3.27% |  |
| CCOC(=O)c1ccc(NC(=O)C2Cc3ccccc3C(=O)O2)cc1 (centres undefined) |  | inconclusive: 6.31 µM [activator, single point] |
| COc1ccc(OC)c(S(=O)(=O)n2ccnc2C(C)C)c1 |  | inconclusive: 20 µM [activator, single point] |
| Clc1cccc(N2CCN(c3ncnc4c3nc3n4CCCC3)CC2)c1 |  | inconclusive: 1.26 µM [activator, partial curve, poor fit] |
| CN(C)CCCN(C(=O)c1ccc(C(=O)c2ccccc2)cc1)c1nc2c(F)cccc2s1 |  | inconclusive: 11.2 µM [inhibitor, partial curve, poor fit] |
| CN1CCN(c2nccc3c2ncn3C)CC1 | inactive: -6.8% [at 46.1 µM] |  |
| Nc1ncnc(Oc2cccc3cccnc23)c1[N+](=O)[O-] |  | inconclusive: 35.5 µM [inhibitor, partial curve, poor fit] |

19 consecutive compounds from above:

| Compound | activity change, negative = inhibition | Potency |
| --- | --- | --- |
| CC(C)NC1CCC(Nc2ccnc3cc(Cl)ccc23)CC1 (centres undefined) |  | active: 2.82 µM |
| Cc1c(Cl)cccc1NC(=O)Cn1nc(C(F)(F)F)c2c1CCC2 | inactive: -10.2% [at 46.1 µM] |  |
| CCOP(=O)(OCC)c1nc(-c2ccc(OC)cc2)oc1N1CCOCC1 | inactive: -5.19% [at 46.1 µM] |  |
| CCCC1(C(=O)OCC)NC(c2cc(OC)c(OC)c(OC)c2)C2C(=O)N(CC)C(=O)C21 (centres undefined) | inactive: 9.61% |  |
| O=C(/C=C/c1ccccc1)CCN1CCOCC1 |  | inconclusive: 14.1 µM [inhibitor, single point] |
| O=[N+]([O-])c1ccc(N/N=C\c2ccccc2OCc2ccccc2)cc1 |  | inconclusive: 35.5 µM [inhibitor, single point] |
| O=C(O)c1cccc2c1C(=O)c1ccccc1C2=O | inactive: 15.4% [at 46.1 µM] |  |
| Cc1cc(C)cc(N(CC(=O)NC2CCCC2)C(=O)CCC(=O)Nc2cc(C)ccn2)c1 | inactive: -1.19% [at 46.1 µM] |  |
| CN1CCN(CCCCC(=O)c2ccccc2)CC1 |  | inactive |
| CCOc1ccc(-c2cc(C(=O)N/N=C/c3cccnc3)c3ccccc3n2)cc1 |  | inconclusive: 1.58 µM [inhibitor, full curve] |
| CCOc1ccccc1C(=O)N1CCN(CCc2ccccn2)CC1 | inactive: -9.67% [at 46.1 µM] |  |
| NCCc1nnc(SCC(=O)c2ccc(Cl)cc2)o1 |  | inconclusive: 1.12 µM [inhibitor, single point] |
| CC(C)(C)c1ccc(C(=O)NC(=S)Nc2sc3c(c2C#N)CCC3)cc1 |  | inconclusive: 6.31 µM [inhibitor, full curve, poor fit] |
| COc1cccc(C(=O)Nc2cccc(OCC(=O)O)c2)c1 | inactive: 11.8% |  |
| O=S1(=O)N=C(N2CCN(Cc3ccccc3)CC2)c2ccccc21 |  | inconclusive: 5.62 µM [activator, single point] |
| CCN(CC)S(=O)(=O)c1ccc(S(=O)(=O)N2CCCC(C(=O)NC3CC3)C2)cc1 (centres undefined) |  | inconclusive: 12.6 µM [inhibitor, partial curve, poor fit] |
| COc1ccc(NS(=O)(=O)c2cccc(C(=O)NNC(=O)c3cc(C)oc3C)c2)cc1 | inactive: -16.3% |  |
| COc1ccc(NS(=O)(=O)c2ccc(NC(=O)c3ccc(Br)cc3)cc2)nn1 |  | inconclusive: 16.4 µM [inhibitor, partial curve, poor fit] |
| CCc1ccc(NC(=O)C(=O)NCCN2CCN(Cc3ccc([N+](=O)[O-])cc3)CC2)cc1 |  | inconclusive: 3.98 µM [inhibitor, full curve] |

More records follow.

| Compound | activity change, negative = inhibition | Potency |
| --- | --- | --- |
| O=C(Nc1cccc(S(=O)(=O)N2CCCCC2)c1)C1CCN(C(=O)c2ccc(Cl)cc2)CC1 |  | inconclusive: 7.94 µM [inhibitor, partial curve, poor fit] |
| Cc1ccc(C(=O)/C=C/Nc2ccc(S(=O)(=O)Nc3cc(C)nc(C)n3)cc2)cc1 | inactive: 21.9% |  |
| O=C1/C(=C/c2ccc(Br)cc2)Oc2cc(O)ccc21 |  | inconclusive: 35.5 µM [inhibitor, single point] |
| CCN(CC)CCCNC(=O)CCCn1c(=O)[nH]c2ccc(Br)cc2c1=O |  | inconclusive: 1.26 µM [inhibitor, partial curve, poor fit] |
| COCCn1nnnc1C(c1ccc(Cl)cc1)N1CCN(C(=O)c2ccco2)CC1 (centres undefined) |  | inconclusive: 5.62 µM [inhibitor, single point] |
| O=C(c1cccs1)N1CCN(S(=O)(=O)N2CCOCC2)CC1 | inactive: -1.23% |  |
| O=C1c2cccc(NCCCNCCO)c2C(=O)c2cccc(NCCCNCCO)c21 |  | inconclusive: 35.5 µM [inhibitor, single point] |
| CC(=O)Nc1ccc(NC(=O)CSc2ccc(C)cc2)cc1 | inactive: 11.6% |  |
| CCOc1ccc(CN2CCN(c3ncnc4scc(-c5ccccc5)c34)CC2)cc1 | inactive: 0.0209% |  |
| COc1ccc(-c2cc(C(=O)N(C)CC(=O)Nc3ccccc3Br)c3ccccc3n2)cc1OC |  | inconclusive: 11.2 µM [inhibitor, partial curve, poor fit] |
| CCOCCn1c(COc2ccccc2)nc2ccccc21 | inactive: -13% |  |
| Cc1ccc(NC(=O)Nc2nnc(Cc3ccc([N+](=O)[O-])cc3)s2)cc1 | inactive: -7.39% |  |
| COc1ccc(CCC(=O)NC(C)C)cc1 |  | inconclusive: 0.501 µM [activator, full curve, poor fit] |
| C/C(=N\NC(=O)CSc1nc2ccccc2s1)c1ccco1 |  | inconclusive: 20 µM [inhibitor, single point] |
| CC(C)(C)n1ncc2c(=O)n(CC(=O)N3CCc4ccccc43)cnc21 | inactive: 20.7% |  |
| COc1ccc(-c2nnc(SCC(=O)Nc3nncs3)o2)cc1 | inactive: 0.665% [at 46.1 µM] |  |
| C/C(N)=C(/C#N)C(=O)CSc1cc(C)c2cc(C)cc(C)c2n1 | inactive: 24.1% [at 46.1 µM] |  |
| COC(=O)CN(c1ccc(OC)cc1)S(=O)(=O)c1ccc(OC)c(OC)c1 |  | inconclusive: 8.91 µM [inhibitor, partial curve, poor fit] |
| CCCCNC(=S)NC1CCCC1 |  | inconclusive: 15.8 µM [activator, single point] |
| CCOC(=O)/C=c1/s/c(=C/c2ccc3cc(OC)ccc3c2)c(=O)n1CC(=O)NCc1ccc2c(c1)OCO2 |  | inconclusive: 5.62 µM [inhibitor, single point] |
| N#Cc1nc(COc2ccccc2)oc1N1CCCC1 | inconclusive: 7.27% [activator] |  |
| COc1ccc(NC(=O)CCNC(=O)C2CCN(S(=O)(=O)c3ccc(OC)cc3)CC2)cc1 |  | inconclusive: 3.55 µM [activator, single point] |
| CCOC(=O)c1cnc(Nc2ccccc2)nc1C(F)(F)F |  | inconclusive: 22.4 µM [inhibitor, single point] |
| CCOC(=O)c1ccc(NC(=O)Nc2ccc3snnc3c2)cc1 | inactive: 15.7% [at 46.1 µM] |  |
